Experimental data from PubChem BioAssay AID504467 (National Center for Advancing Translational Sciences (NCATS), 2011).
About 7,700 (2.3%) of roughly 330,000 compounds were called active. Inconclusive means that the source gave no clear call. Such entries were picked first, then a sample of the others. Calls follow the shape of the dose curve; as a rule, active = well fitted inhibition curve with a large enough effect; inconclusive = small, poorly fitted or top-dose-only effect, or effect the other way; inactive = flat fitted curve, though single readings scatter. Potencies beside an inconclusive call are fits to weak or partial responses and may not hold up.
% is scaled to controls: 0 for no effect and ±100 for the full control effect; potency is read from the fitted curve at half-maximal effect.

Experiment: qHTS screen for small molecules that inhibit ELG1-dependent DNA repair in human embryonic kidney (HEK293T) cells expressing luciferase-tagged ELG1; also: nearly all actives have a fitted effect of over 55% in size
Conditions: HEK293T ELG1-luciferase reporter, luminescence, 16 h, DNA damage induced by 5-fluorouridine; activity change, negative = inhibition: at 46.1 µM (top of the series)
Method in brief: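 DMSO vehicle served as the neutral condition. Each well held 2,000 cells given 5-fluorouridine plus compound; after 16 hr at 37 °C/5% CO2, ONE-Glo was added and luciferase measured 30 min later.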
For `Nc1nonc1-c1noc(N2CCCCC2)n1`, the Potency was inconclusive: 16.4 µM [activator, partial curve]. With `CCN(c1ccccc1)S(=O)(=O)c1ccc(OC)c(NC(=O)CNCCc2ccccc2)c1` the Potency was inconclusive: 18.3 µM [inhibitor, single point]. For `Cc1nc(C)c(-c2csc(Nc3cccnc3)n2)s1`, the Potency was inconclusive: 29.1 µM [inhibitor, single point]. For `COc1cc(-c2nc(Cc3ccccc3Cl)no2)cc(OC)c1OC`, the Potency was inconclusive: 20.6 µM [inhibitor, single point]. With `O=C(Cn1cc([N+](=O)[O-])ccc1=O)NCc1ccc(Cl)cc1Cl` the Potency was inconclusive: 23.1 µM [activator, partial curve]. In the case of `Cc1ccc(S(=O)(=O)N2CCOCC2)cc1C(=O)OCC(=O)NC1CCCC(C)C1C` (centres undefined), the Potency is reported as inconclusive: 11.6 µM [inhibitor, partial curve, poor fit]. For `COc1cccc(CNC(=O)CSCc2cnn(-c3ccccc3)c2-n2cccc2)c1OC`, the Potency was inconclusive: 29.1 µM [inhibitor, single point]. With `COc1ccc(C(=O)NC(=S)NC(C)C)cc1Br` the “activity change, negative = inhibition” value was inactive: 18.5%. In the case of `CCCc1nc2ccccc2c(C(=O)OCC(=O)NCc2ccco2)c1CC`, the Potency is reported as inconclusive: 20.6 µM [inhibitor, single point]. For `COc1cccc(Nc2nc(NCCO)c3ccccc3n2)c1`, the Potency was active: 16.4 µM. With `N#Cc1nc(COc2ccc(-c3ccccc3)cc2)oc1NCCCN1CCOCC1` the “activity change, negative = inhibition” value was inactive: -29.5%. For `COc1cc(-c2nc(S(=O)(=O)c3ccccc3)c(N3CCOCC3)o2)cc(OC)c1OC`, the Potency was inconclusive: 4.61 µM [inhibitor, full curve]. In the case of `Oc1ccc(/C=N/Nc2nccnc2Cl)cc1`, the Potency is reported as inconclusive: 9.2 µM [activator, partial curve]. In the case of `CCCN(Cc1cc2ccc(C)cc2[nH]c1=O)S(=O)(=O)c1ccccc1`, the Potency is reported as inconclusive: 18.4 µM [inhibitor, single point]. In the case of `CCN(Cc1ccncc1)C(=S)Nc1ccc(Cl)cc1`, the Potency is reported as inconclusive: 16.4 µM [inhibitor, single point]. For `COc1ccc(S(=O)(=O)N2CCOCC2)cc1NC(=O)c1cccc(Cl)c1`, the “activity change, negative = inhibition” value was inactive: -8.25%. With `COC(=O)C1[C@H]2SC(C)(C)C(C(=O)OC)N2C(=O)N1Cc1nc2ccccc2s1` (some centres undefined) the Potency was inconclusive: 2.06 µM [activator, single point]. In the case of `CCn1nc2cc(C(=O)NCC34CC5CC(CC(C5)C3)C4)ccc2c1OC`, the “activity change, negative = inhibition” value is reported as inactive: 5.08%. For `COc1ccc(C(=O)N2N=C(c3ccccc3)CC2(O)C(F)(F)F)cc1` (centres undefined), the Potency was inconclusive: 16.4 µM [inhibitor, partial curve, poor fit]. In the case of `Cc1sc2ncnc(N3CCC(C(=O)Nc4cc(Cl)ccc4Cl)CC3)c2c1C`, the Potency is reported as inconclusive: 25.9 µM [inhibitor, single point]. With `CCN(CC)CC#CCC(O)(c1ccccc1)C1CCCCC1` (centres undefined) the Potency was inconclusive: 18.3 µM [activator, single point]. In the case of `CN(Cc1ccc(F)cc1)C(=O)c1cccc(OCc2ccccc2)c1`, the “activity change, negative = inhibition” value is reported as inactive: -0.994%. In the case of `COc1cccc(/C=N/NC(=O)c2ccc(=O)n(C)c2)c1O`, the Potency is reported as inconclusive: 3.26 µM [inhibitor, partial curve, poor fit]. With `O=C(CSCc1nc2ccccc2[nH]1)N1CCN(c2ccc(F)cc2)CC1` the Potency was inconclusive: 11.2 µM [inhibitor, partial curve, poor fit]. For `O=C(Cc1ccccc1)NC(NC(=S)Nc1cc(Cl)ccc1Cl)C(Cl)(Cl)Cl` (centres undefined), the “activity change, negative = inhibition” value was inactive: -0.0823%. For `O=C1/C(=C/c2cccnc2)CCC/C1=C\c1cccnc1`, the Potency was active: 4.11 µM. With `Cc1cc2ccccc2n1CCNC(=O)c1ccc(S(=O)(=O)N2CCCCC2)cc1` the Potency was inconclusive: 3.26 µM [inhibitor, partial curve, poor fit]. With `COC(=O)[C@H](C)NC(=O)NCc1ccccc1` the “activity change, negative = inhibition” value was inactive: -5.61%. With `CC1=NN(C(C#N)c2c(C)nn(Cc3ccccc3)c2C)C(C)(C)C1` (centres undefined) the “activity change, negative = inhibition” value was inactive: -3.35%. With `Cc1nc(N2CCN(S(=O)(=O)c3ccccc3)CC2)c2cc(-c3ccccc3)sc2n1` the Potency was inconclusive: 14.6 µM [activator, partial curve]. For `CCn1cc(C(=O)O)c(=O)c2cc(F)c(N3CCN(C(=S)NC(=O)c4ccccc4F)CC3)cc21`, the Potency was inconclusive: 16.4 µM [inhibitor, partial curve]. For `Cc1cc(=O)[nH]c(N/N=C/c2cc(C)n(-c3ccccc3)c2C)n1`, the Potency was inconclusive: 2.59 µM [activator, partial curve]. With `CCOC(=O)N1CCN(c2nc3ccccc3nc2C(C#N)S(=O)(=O)c2ccc(C)cc2)CC1` (centres undefined) the “activity change, negative = inhibition” value was inactive: -2.33%. For `O=C(Nc1ccc(F)cc1)c1cc2c(s1)CCCC2`, the Potency was inconclusive: 2.59 µM [activator, partial curve]. With `COC(=O)c1ccc2c(=O)[nH]c(COC(=O)c3c(-c4ccccc4Cl)noc3C)nc2c1` the Potency was inconclusive: 10 µM [inhibitor, partial curve, poor fit]. In the case of `CSCC[C@H](NC(=O)OC(C)(C)C)C(=O)N1CCC(C(=O)NCC(=O)Nc2ccc(C)cc2)CC1`, the “activity change, negative = inhibition” value is reported as inactive: -2.91%. For `CC1=NN(C(=S)Nc2ccccc2)C(c2ccccc2)C1` (centres undefined), the Potency was inconclusive: 18.4 µM [activator, partial curve, poor fit]. In the case of `CN1C(=O)C(C)(C)c2cc(S(=O)(=O)N3CCN(c4ccccc4F)CC3)ccc21`, the “activity change, negative = inhibition” value is reported as inactive: 0.0224%. For `Cc1ccc(-n2nc(CN3CCOCC3)c(-c3ccccc3)c2N)c(C)c1`, the “activity change, negative = inhibition” value was inactive: 9.41%. With `O=C(Nc1ccc2c(c1)OCCO2)c1cccc2nc3ccccc3nc12` the Potency was inconclusive: 35.5 µM [inhibitor, single point]. With `CC(C(=O)NCc1ccccc1)N1C(=O)CN(C)C(=O)c2ccccc21` (centres undefined) the “activity change, negative = inhibition” value was inactive: 1.38%. For `CCOC(=O)c1ccc(NC(=O)C2C3C=CC(C3)C2C(=O)O)cc1` (centres undefined), the Potency was inconclusive: 18.4 µM [activator, partial curve]. With `NC(=S)NN=Cc1ccc(-c2ccc(S(=O)(=O)Nc3ncccn3)cc2)o1` the “activity change, negative = inhibition” value was inactive: 3.22%. For `Cc1ccc(C)c(NC(=O)CN(C)C(=O)c2ccccc2OCc2ccc(Cl)cc2)c1`, the Potency was inconclusive: 10.3 µM [inhibitor, partial curve, poor fit].
